This is an account of results in article doi:10.1101/2023.10.10.561251.

No constants are given. Whether binding was seen depends on the method and setting. Binding seen in cells or lysates may run through a third protein. Some entries that bind do so weakly or less than the wild type. Tags and fused reporters may be left off the sequences shown.

The test has as its target T1, VIA1-YFP (Arabidopsis VIA1 with a C-terminal YFP) (A. thaliana) (UniProt Q8GW20).
T1 sequence: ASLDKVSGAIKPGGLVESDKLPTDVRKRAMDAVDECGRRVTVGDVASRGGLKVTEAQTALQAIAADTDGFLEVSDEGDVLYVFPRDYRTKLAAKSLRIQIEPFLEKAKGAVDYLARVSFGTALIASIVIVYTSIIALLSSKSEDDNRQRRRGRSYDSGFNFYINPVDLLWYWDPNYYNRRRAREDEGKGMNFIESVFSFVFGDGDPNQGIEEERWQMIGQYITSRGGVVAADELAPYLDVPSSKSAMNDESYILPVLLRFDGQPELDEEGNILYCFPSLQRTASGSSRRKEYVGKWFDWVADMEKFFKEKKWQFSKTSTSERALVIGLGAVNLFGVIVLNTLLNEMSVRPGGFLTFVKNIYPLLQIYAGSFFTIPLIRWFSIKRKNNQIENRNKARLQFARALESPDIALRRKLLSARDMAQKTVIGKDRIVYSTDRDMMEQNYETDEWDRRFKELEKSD
Description: co-IP.

B1: VIPP1-FLAG (Arabidopsis VIPP1 with a FLAG tag) (protein, UniProt O80796 65-330)
chain: CNGHGATMNLFERFSRVVKSYANALISSFEDPEKILEQTVIEMNSDLTKMRQATAQVLASQKQLQNKYKAAQQSSDDWYKRAQLALAKGDEDLAREALKRRKSFADNATALKTQLDQQKGVVDNLVSNTRLLESKIQEAKAKKDTLLARARTAKTATKVQEMIGTVNTSGALSAFEKMEEKVMAMESEADALTQIGTDELEGKFQMLETSSVDDDLADLKKELSGSSKKGELPPGRSTVAASTRYPFKDSEIENELNELRRKANDF
For the molecule B1, the binding result is “binds”.
